In PMC10649274 (International Journal of Molecular Sciences, 2023):
Where “and” joins values, the source holds several entries; their conditions need not be identical. Identical values can stand only once.

Experiments:
[1] = tested on: native NMDA receptors; settings: −80 mV; earlier papers of the authors; cited from earlier work
[2] = tested on: native NMDA receptors; assay: Analysis of voltage dependence of NMDA receptor block (Woodhull model with voltage-independent component, Equation (2)); type: cell-based, rat; settings: for zδ: reanalysis of the authors' earlier voltage dependence data [16],[17]
Experimental: NMDA receptors were activated with 100 µM NMDA plus 10 µM glycine unless otherwise stated. The percentages of blocking of the steady-state or peak currents by different drug concentrations were measured at −80, −30 or +30 mV holding voltages. Kinetics of transient processes of more than 20 ms duration were approximated with single or double exponential functions. In case of double exponential fitting, the weighted time constant was used.
The voltage dependence of compounds’ action was analyzed with the classical Woodhull model with the addition of a voltage-independent component. […] Kb is the affinity of a drug for the channel, and δ is the electrical depth of the binding site. The δ value reflects the fraction of membrane electric field that the charged blocking molecule crosses on its pathway between the external media and the binding site in the channel.
Thus, we deduced Equation (2), taking it into account and assuming that the binding to the deep and shallow site is independent:(2) B=100−100/(1+C/(Kvd∗exp〖Fzδ/RTV〗)+C/Kvi+(C∗C)/((Kvd∗exp〖Fzδ/RTV〗∗Kvi))
In this equation, Kvd is the affinity of the drug to the deep site, Kvi—the affinity of the drug to the shallow site, and other parameters are the same as in Equation (1).
All experimental data are presented as the mean ± SD estimated from at least four experiments (cells). Significance of the effects was tested with t-tests. Differences were considered significant at p < 0.05. Concentration dependencies were approximated with Hill equation. Voltage dependencies were approximated with Equation (2). […] Approximation error values were taken as the precision measures.

[3] = tested on: native NMDA receptors; assay: Whole-cell patch clamp of NMDA plus glycine induced currents in isolated CA1 pyramidal neurons; type: cell-based, rat
Experimental: The rats were anesthetised with sevoflurane and then decapitated. The brains were brought out quickly and cooled to 2–4 °C. […] All experiments were performed at room temperature.
Vibrodissociation method was used to free CA1 pyramidal neurons from slices. This method allows for isolating cells without enzymatic treatment and keeping them in more native state. Pyramidal cells were isolated from the stratum pyramidale and distinguished from non-pyramidal cells on the basis of pyramidal-like somata and preserved apical dendrites.
To record membrane currents in response to applications of NMDA and glycine, the whole-cell configuration of patch clamp technique was used. Series resistance (<20 MΩ) was compensated by 70–80% and monitored during experiments. Only cells with stable holding currents were used in further analysis. The current signals were amplified using EPC-8 (HEKA Electronics, Lambrecht, Germany), filtered at 5 kHz, sampled, and stored on a personal computer. RSC-200 (BioLogic Science Instruments, Claix, France) perfusion system was used to apply the drugs under computer control. […] The pipettes with resistance of 2–5 MΩ were filled with the following solution (in mM): CsF 100, CsCl 40, NaCl 5, CaCl2 0.5, EGTA 5, HEPES 10 (pH adjusted to 7.2 with CsOH). […] Other reagents were purchased from MedChemExpress (Monmouth Junction, NJ, USA), Sigma (St. Louis, MO, USA), or Tocris Bioscience (Bristol, UK).
NMDA receptors were activated with 100 µM NMDA plus 10 µM glycine unless otherwise stated. […] Kinetics of transient processes of more than 20 ms duration were approximated with single or double exponential functions. In case of double exponential fitting, the weighted time constant was used.

SMILES	Hill Coeff. [1]	zδ ([2]; Equation (2) fit, zδ free)	further results
N=C(N)c1ccc(-c2cc3ccc(C(=N)N)cc3[nH]2)cc1 [DAPI]	1.2 ± 0.2	0.06 ± 0.70	–
N=C(N)c1ccc(/N=N/Nc2ccc(C(=N)N)cc2)cc1 [Diminazene]	2.0 ± 0.3	–	–
N=C(N)c1ccc(-c2ccc(-c3ccc(C(=N)N)cc3)o2)cc1 [Furamidine]	1.5 ± 0.2	–	–
CCOC(=O)c1ccc(OC(=O)CCCCCNC(=N)N)cc1 [Gabexate]	0.8 ± 0.2	0.4 ± 0.2	–
N=C(N)c1ccc2cc(OC(=O)c3ccc(N=C(N)N)cc3)ccc2c1 [Nafamostat]	1.2 ± 0.2	–	–
N=C(N)c1ccc(OCCCCCOc2ccc(C(=N)N)cc2)cc1 [Pentamidine]	1.1 ± 0.2	1.4 and 1.4 ± 0.1	–
N=C(N)c1ccc2cc(OC(=O)c3ccc(NC4=NCCN4)cc3)ccc2c1 [Sepimostat]	–	–	Hill coefficient, peak component ([3]; +30 mV, peak): 0.9 ± 0.1; Hill coefficient, steady-state component ([3]; +30 mV, steady-state): 0.9 ± 0.1; Hill coefficient, peak component ([3]; −80 mV, peak current): 1.1 ± 0.2; Hill coefficient, steady-state component ([3]; −80 mV, steady-state current): 0.9 ± 0.1; zδ, peak component ([2]; Equation (2) fit, zδ free, peak current, −120 to +30 mV): 0.7 ± 0.2; zδ, steady-state component ([2]; Equation (2) fit, zδ free, steady-state current, −120 to +30 mV): 0.6 ± 0.2 and 0.6; δ value (electrical depth of binding site) ([2]; from zδ assuming +1 charge): 0.6 ± 0.2
